We go through 42 sequences from publication PMC7819943, “Rice protein-binding microarrays: a tool to detect cis-acting elements near promoter regions in rice”.

This is one part of the list.

The experiment has as its target T1, OsSMF1 (Oryza sativa, UniProt Q6ZLB0 1-436).
T1 sequence: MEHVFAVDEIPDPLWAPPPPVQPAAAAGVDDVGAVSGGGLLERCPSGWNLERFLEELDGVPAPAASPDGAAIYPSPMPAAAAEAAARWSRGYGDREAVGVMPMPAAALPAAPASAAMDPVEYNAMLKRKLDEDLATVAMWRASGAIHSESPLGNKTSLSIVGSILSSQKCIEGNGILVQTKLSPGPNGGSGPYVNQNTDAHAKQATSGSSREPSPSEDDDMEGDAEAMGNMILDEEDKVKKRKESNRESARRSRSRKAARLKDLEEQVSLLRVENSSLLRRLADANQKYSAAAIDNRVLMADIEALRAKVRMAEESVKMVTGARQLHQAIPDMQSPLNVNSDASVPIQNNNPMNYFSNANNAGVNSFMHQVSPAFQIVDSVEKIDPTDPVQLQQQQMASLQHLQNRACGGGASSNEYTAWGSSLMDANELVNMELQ
Description: protein-binding microarray (RPBM); PBS, 2% BSA, 51.3 ng/ul salmon testes DNA, 50 uM zinc acetate, 200 nM TF, 25 C, 1 h; high values mean tight binding. The following applies: protein: recombinant; tags: N-terminal polyhistidine and DsRed monomer fusion (pET32a); chain copies: 2; label: CyDye5-dUTP incorporated in the synthesized complementary strand; 3' TTTTT single-stranded linker to array surface; dsDNA, one strand shown. An outline of the steps:
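Per-feature fluorescence intensity (arbitrary units), read on an Axon 4000B scanner, is the binding signal. Transcription factors carrying an N-terminal polyhistidine tag and DsRed fusion were expressed in E. coli BL21-CodonPlus and purified on Ni–NTA. A custom Agilent array, made double-stranded by primer extension with Cy5-dUTP and blocked with 2% BSA, was incubated with 200 nM protein in PBS, 2% BSA, salmon testes DNA and 50 µM zinc acetate at 25 °C for 1 h and then washed.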
Take “ACCCACCCACCTGGCACCAATCTCGATGCAAATCCAACGGCGGAGTCACCTAGTGCAG”: the binding signal was 3460 fluorescence intensity (a.u.).
To “GCTACCGTTTGATCTGAATCGGATGGCACAGGTTAGTCAGCGGAGTCACCTAGTGCAG” belongs 3240 fluorescence intensity (a.u.); to “AAACCAAAACCAAACCGAAGCTTCCCCATCTCGCGTGAACCGGAGTCACCTAGTGCAG”, 40800 fluorescence intensity (a.u.).
To “TTCGGTTTTCCCTGGCTGACGAGTGACAAAACTGCAGTTGCGGAGTCACCTAGTGCAG” belongs 3770 fluorescence intensity (a.u.).
To “TTAGTCCTTCATCTTCACTTGTGACATGGCTTGCTTGCAGCGGAGTCACCTAGTGCAG” belongs 3680 fluorescence intensity (a.u.); to “ATGGCCGATAAGCCGTCCACGCGTCCACGGCAATCTCGCGCGGAGTCACCTAGTGCAG”, 4160 fluorescence intensity (a.u.); to “CCCCACTAGTCCAGCTTTTGTATGACTCGTCTATGTCAGTCGGAGTCACCTAGTGCAG”, 5270 fluorescence intensity (a.u.).
For the sequence “CGGCCGTCCTCGGAGAACGGGAGGAAGTCGCGTCACGGTGCGGAGTCACCTAGTGCAG”, the binding signal was 4670 fluorescence intensity (a.u.).
To “ATCACAGGAGACTGCAACGTCATCTAAAACTCCTCGTTGGCGGAGTCACCTAGTGCAG” belongs 6700 fluorescence intensity (a.u.); to “GAGAACACTGACATGTGGGCCCCACAATTTCGCCGCATATCGGAGTCACCTAGTGCAG”, 3700 fluorescence intensity (a.u.).
To “TCTCTAATTTATTAGAGCACCACGTGTCGGCTTGAGAGCGCGGAGTCACCTAGTGCAG” belongs 9150 fluorescence intensity (a.u.); to “TTGTAGGCCACAGGTAGTAGTATGACTGTATGAGTTGCAGCGGAGTCACCTAGTGCAG”, 5250 fluorescence intensity (a.u.).
To “AAATGTGATGATCGTTAGTGGATGATGATGTGGCATCTGGCGGAGTCACCTAGTGCAG” belongs 13400 fluorescence intensity (a.u.).
Take “GTAGGGCACGATGATATGTCCGGGTGTCACCTTGATTTTCCGGAGTCACCTAGTGCAG”: the binding signal was 3720 fluorescence intensity (a.u.).
Consider “TAGAAAGTGCCCAATTAGTATAGGTATAGATAGATAGACTCGGAGTCACCTAGTGCAG”, for which the binding signal is 51000 fluorescence intensity (a.u.).
As for “ATTGAAAATTCTCTACTCTTTACACGTGTCCATCATCCCACGGAGTCACCTAGTGCAG”, the binding signal was 19100 fluorescence intensity (a.u.).
To “TGCCGATGCCCGCCTGCATGTACTATACGAACCAAAACGCCGGAGTCACCTAGTGCAG” belongs 4590 fluorescence intensity (a.u.); to “CTCCCATTCTTGAACAAGTAGAATTACCTCTTGCACAGCGCGGAGTCACCTAGTGCAG”, 3910 fluorescence intensity (a.u.); to “CGGATTTCGCCCGCCTCCGCCCTCGGTGTTGGAGTTTGGTCGGAGTCACCTAGTGCAG”, 23800 fluorescence intensity (a.u.).
To “TCCATTTTGACCGAAAATAATAAAATAATGAGAAGAGGGTCGGAGTCACCTAGTGCAG” belongs 34100 fluorescence intensity (a.u.).
To “CTACGACCTAGGAACAAGTAGTCCACGTATACTTCGCTGGCGGAGTCACCTAGTGCAG” belongs 5860 fluorescence intensity (a.u.); to “GCACCTACAATTCATTGACTAGGATTGTGCCAAGCCTGGCCGGAGTCACCTAGTGCAG”, 3350 fluorescence intensity (a.u.); to “CCCTGTGCAAGAGATAATAAGGTTACGTGGAGACCACTTGCGGAGTCACCTAGTGCAG”, 6390 fluorescence intensity (a.u.).
With “TTCACAGGTTGAGCCATCCAACTGCGTGCTTGCCAAGAACCGGAGTCACCTAGTGCAG”, the binding signal is 3190 fluorescence intensity (a.u.).
As for “TCCCCTCCCCACCATTGCCGCCGCGCCGCGCCACGCCACGCGGAGTCACCTAGTGCAG”, the binding signal was 3960 fluorescence intensity (a.u.).
To “GCAGTATATGTGTGTGTGCTTTCTTTTGGGATAGAGTCTGCGGAGTCACCTAGTGCAG” belongs 3460 fluorescence intensity (a.u.); to “GACTGCGAATCTGCAACTAGATAAACAAAGGAAGAACATGCGGAGTCACCTAGTGCAG”, 21400 fluorescence intensity (a.u.).
For the sequence “TCAGTCATGTTATGAATTCTTGACGGTGAACACCAGCTGGCGGAGTCACCTAGTGCAG”, the binding signal is 3140 fluorescence intensity (a.u.).
To “GCCTCACCCTCACCGCCACCCCGCCGCCGCCGATCTACACCGGAGTCACCTAGTGCAG” belongs 3500 fluorescence intensity (a.u.); to “TTATAAATTAAATTTTATGTAATGAAAATAATATCATTGGCGGAGTCACCTAGTGCAG”, 3900 fluorescence intensity (a.u.).
To “ACACCACGCTGACATGTCAACGTGTTGTGCCACGTTAGTTCGGAGTCACCTAGTGCAG” belongs 18400 fluorescence intensity (a.u.); to “ATGTATTGCATAACTGTGTTGACTATTGTTGACTTGTGTACGGAGTCACCTAGTGCAG”, 3200 fluorescence intensity (a.u.); to “AAACATCAATTGTATTATCCTTGAAAAGAAGGCACATCACCGGAGTCACCTAGTGCAG”, 44800 fluorescence intensity (a.u.).
As to “GACCGGGCTTCACAATTTAGGGGCCCGAACCTATATAAAACGGAGTCACCTAGTGCAG”, the binding signal is 38600 fluorescence intensity (a.u.).
To “TCCTATTACCATCTCAGGCCTCGTTGACGTAACAGGGCCGCGGAGTCACCTAGTGCAG” belongs 4000 fluorescence intensity (a.u.); to “TCTCCCTGCCACCGACGTCACCGCCCGCCATCGACGCCTCCGGAGTCACCTAGTGCAG”, 6820 fluorescence intensity (a.u.).
To “TCTAGGCCGGCCATTGGCGGAGGAGAGGGAGGCCGGCACGCGGAGTCACCTAGTGCAG” belongs 20700 fluorescence intensity (a.u.); to “CCACGCTGAGTCAGCTGCCACGTCAAACAAAACTGGAGTCCGGAGTCACCTAGTGCAG”, 21600 fluorescence intensity (a.u.); to “GCCCTGCTTGTCAGCGGCTTGAGGGAGGAAAGGGAGGTGGCGGAGTCACCTAGTGCAG”, 3710 fluorescence intensity (a.u.).
To “CCTCAGCCCACATCACCGGAGAGACCCCGTCGGCTCGCCGCGGAGTCACCTAGTGCAG” belongs 4710 fluorescence intensity (a.u.); to “GTGCTCCACTCTAAGTCGCCGGAGCTCCGCGTCCTGCCCGCGGAGTCACCTAGTGCAG”, 3790 fluorescence intensity (a.u.).
For the sequence “AACGGCCGTTGAACTGACGTGGACTGGGCCCCACATTCCGCGGAGTCACCTAGTGCAG”, the binding signal is 8830 fluorescence intensity (a.u.).
